# Library screen at single concentrations

Protein sequences, listed by entry. Tags and fused reporters are not part of them. Residues count along the entry.
UniProt Q4DA54, 1-478: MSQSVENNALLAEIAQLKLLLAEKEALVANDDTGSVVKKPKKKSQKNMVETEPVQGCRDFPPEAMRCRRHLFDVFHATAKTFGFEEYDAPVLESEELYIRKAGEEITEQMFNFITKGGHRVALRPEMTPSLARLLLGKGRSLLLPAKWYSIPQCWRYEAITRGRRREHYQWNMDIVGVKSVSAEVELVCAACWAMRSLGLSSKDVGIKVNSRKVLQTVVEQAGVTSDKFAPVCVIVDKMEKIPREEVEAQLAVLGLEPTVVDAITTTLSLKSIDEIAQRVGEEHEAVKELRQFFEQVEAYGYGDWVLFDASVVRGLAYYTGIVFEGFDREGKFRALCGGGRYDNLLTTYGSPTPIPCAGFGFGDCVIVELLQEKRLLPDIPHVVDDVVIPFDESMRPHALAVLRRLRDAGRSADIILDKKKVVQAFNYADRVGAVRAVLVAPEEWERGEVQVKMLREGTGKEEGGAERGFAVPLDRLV
UniProt P9WNZ1, whole entry: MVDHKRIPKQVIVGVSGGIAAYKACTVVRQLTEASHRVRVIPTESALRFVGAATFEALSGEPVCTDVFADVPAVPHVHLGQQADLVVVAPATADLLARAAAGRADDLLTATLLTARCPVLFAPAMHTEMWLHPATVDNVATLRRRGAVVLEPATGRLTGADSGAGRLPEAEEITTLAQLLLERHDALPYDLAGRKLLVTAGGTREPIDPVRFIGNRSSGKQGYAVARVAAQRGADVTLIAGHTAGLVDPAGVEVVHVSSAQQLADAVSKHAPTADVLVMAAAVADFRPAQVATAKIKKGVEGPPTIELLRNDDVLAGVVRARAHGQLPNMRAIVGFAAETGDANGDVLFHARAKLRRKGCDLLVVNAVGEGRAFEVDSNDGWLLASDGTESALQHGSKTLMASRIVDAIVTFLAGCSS

Data taken from ChEMBL document CHEMBL3988442, “University of Dundee, Small-Polar-MMV Screening Library” (2021).

Results are given as percent effect. The record does not define 0% and 100%; most values in the screen are far below 50% and negative numbers occur (in some assays of this library far below -100). The compounds are a random part of those screened.

TcHisRS: 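Enzyme assay of histidyl-tRNA synthetase; the read-out is not stated. Target: Histidine-tRNA ligase, Trypanosoma cruzi CL Brener (UniProt Q4DA54). Concentration: 30 µM. The record gives no direction; compounds that gave an IC50 in retests scored well above the rest, so higher reads as stronger inhibition. Size under these conditions: about 69,000 compounds, about 31 of them at 50% or above in at least one test.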
CoaBC: 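Enzyme assay of CoaBC with a phosphate dye (Biomol Green) read at 650 nm. Target: Coenzyme A biosynthesis protein CoaBC, Mycobacterium tuberculosis (UniProt P9WNZ1). Tested at 30 µM. Direction is inferred from only a few compounds that gave an IC50; most scored high, so higher reads as stronger inhibition. Most strong results did not repeat in a second test. Of about 67,000 compounds tested this way, about 40 (0.06%) reached 50% or more in at least one test.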

With CCc1[nH]c2c(CNc3nccc(N)n3)cc(F)cc2c1C the screen gave TcHisRS: 29.6%; CoaBC: -34.42%. CSc1c[nH]nc1NS(=O)(=O)c1cc(F)ccc1C read TcHisRS: 3.191%; CoaBC: 2.008%. O=C(Nc1ccc(CCN2CCC(O)CC2)cc1)C1CCOCC1 read TcHisRS: 3.448%; CoaBC: -7.757%. For CS(=O)(=O)NC1CCN(C(=O)c2ccc(Br)cc2)C1 (stereo not given) the result was TcHisRS: 2.128%; CoaBC: 10.2%. CC(C)NC(=O)C1(Cc2ccccc2-c2cccs2)CCNC1 (stereo not given) gave TcHisRS: 0%; CoaBC: 1.46%. For O=C(NC(CC(F)(F)F)c1ccc(Cl)cc1)c1nc(=O)[nH][nH]1 (stereo not given) the result was TcHisRS: 9.554%. For CC(C)CC(CCO)CNC(=O)N1CCC1(C)C (stereo not given) the result was TcHisRS: 1.01%; CoaBC: 2.917%.

OCCNc1nccc(-c2c[nH]nc2-c2ccncc2)n1 read TcHisRS: -9.04%; CoaBC: 1.084%. With O=C(NC1(c2nccs2)CCCC1)c1cc(C2CC2)[nH]n1 the screen gave TcHisRS: 4.865%; CoaBC: -0.8547%. Cn1cc(C2CCCN2C(=O)c2cnc(C3CC3)s2)cn1 (stereo not given) read TcHisRS: 13.13%; CoaBC: -3.367%. COc1ccc(-c2nnc(SC(C)C(=O)NC(C)(C)C)[nH]2)c(OC)c1 (stereo not given) read TcHisRS: 8.333%; CoaBC: 1.24%. For CC(C)[C@@H](CO)Nc1cc(-c2cn[nH]c2)ncn1 the result was TcHisRS: 2.26%; CoaBC: -0.8434%. For Cc1nc(-c2cc(C(=O)NC(C)(C(=O)O)C(C)C)co2)cs1 (stereo not given) the result was TcHisRS: 4.902%; CoaBC: -0.319%. With CCOCCN1CCN(CCOC)CC1C (stereo not given) the screen gave TcHisRS: 4.082%; CoaBC: 0.3745%.

With c1cn(CC2CCOCC2)c(-c2cc(CN3CCCC3)cs2)n1 the screen gave TcHisRS: 26.19%; CoaBC: 5.147%. COc1c(CNCCNC(=O)c2cccc(C)c2)c(C)nn1C gave TcHisRS: 2.339%; CoaBC: -2.041%. For CCC1CN(C(=O)c2ccccc2N2CCCC2)CCN1C(C)C (stereo not given) the result was TcHisRS: 2.479%; CoaBC: -10.96%. CN(Cc1ccc2c(c1)OCO2)C(=O)C1CC(c2cccc(F)c2)=NO1 (stereo not given) gave TcHisRS: 2.155%; CoaBC: 1.141%. With COCC(=O)N1CCCC(C(=O)N(C)CCCc2cnn(C)c2)C1 (stereo not given) the screen gave TcHisRS: 9.524%; CoaBC: 1.225%. CCc1cnc(CN(C(C)=O)C2CCN(CC3(O)CCCCC3)C2)o1 (stereo not given) read TcHisRS: 4.046%; CoaBC: 6.769%. For COc1c(CNC2CCCc3ccccc32)c(C)nn1C (stereo not given) the result was TcHisRS: 0.8475%; CoaBC: 11.01%.

Result for O=C(C1CCCCC1)N1CCC2(CC1)OCCO2 was TcHisRS: 7.538%; CoaBC: 1.324%. COc1ccnc(N2Cc3cnc(C(C)(C)C)nc3C2)n1 read TcHisRS: 5.978%; CoaBC: 2.479%. For CCc1noc(CN2CCN(Cc3cccs3)CC2)n1 the result was TcHisRS: 5.143%; CoaBC: 3.106%. CNc1cc(N2CCCC2CNCc2cscn2)ncn1 (stereo not given) read TcHisRS: 3.529%; CoaBC: 4.092%. Result for CCN1C[C@H]2CCN(C(=O)Cc3cccc(OC)c3)CC[C@H]2S1(=O)=O was TcHisRS: 6.145%; CoaBC: 4.727%. Result for COCCN1CCC(NCc2c(F)cccc2F)C1 (stereo not given) was TcHisRS: 8.571%; CoaBC: 5.257%. Result for CC(NC(=O)COc1ccccc1Cl)c1nnc2n1CCC2 (stereo not given) was TcHisRS: 9.392%; CoaBC: 2.913%.

Cc1cc(C)c(CNC(=O)C(C)Oc2cccc(C#N)c2)c(=O)[nH]1 (stereo not given) read TcHisRS: 4.819%; CoaBC: 3.053%. Result for O=C1NC(c2cnc(C3CCC3)s2)Nc2ccccc21 (stereo not given) was TcHisRS: 6.25%; CoaBC: -2.163%. COCCn1c2c(ccc1=O)CC(N)CC2 (stereo not given) read TcHisRS: 8.738%; CoaBC: 2.036%. Result for Cc1ccc(F)cc1S(=O)(=O)NCc1[nH]ncc1Br was TcHisRS: 11.11%; CoaBC: 6.818%.

The first 3 entries again:

* CCc1[nH]c2c(CNc3nccc(N)n3)cc(F)cc2c1C | TcHisRS: 29.6%; CoaBC: -34.42%
* CSc1c[nH]nc1NS(=O)(=O)c1cc(F)ccc1C | TcHisRS: 3.191%; CoaBC: 2.008%
* O=C(Nc1ccc(CCN2CCC(O)CC2)cc1)C1CCOCC1 | TcHisRS: 3.448%; CoaBC: -7.757%